Results deposited as PubChem BioAssay AID1224830 (NIAID, 2016).

- Test: 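Host factors that control LPS-induced TNF expression in human macrophages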 (primary screen)
- System: human THP-1 monocytic leukaemia cells, TNF dual-luciferase reporter clone, PMA-differentiated to macrophage-like cells
- Reagents: siRNA pool against human genes, 50 nM
- Duration: LPS for 4 h, given about 3 days after siRNA transfection
- Conditions: bacterial LPS (TLR4 ligand), 10 ng/ml
- Read-out: 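Ratio of firefly to renilla light, scaled to the plate median and expressed as a robust z-score per replicate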
- Reading the numbers: TNF reporter robust z-score: higher = stronger TNF reporter response to LPS
- Call rule: 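Each well counts as active if its z-score is over 2.8 or under -1.5; controls are left without a call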
In all, the deposit lists about 18,000 reagents; this is a random part of them. Of all reagents, about 2,900 (16%) are marked active. 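Calls are made per well; low scores hint the gene aids the LPS response, high scores that it dampens it.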 Repeated entries: four replicate wells of each siRNA pool.

Target gene,TNF reporter robust z-score,outcome
OR4F29 (olfactory receptor family 4 subfamily F member 29),-0.42,inactive
OR4F29 (olfactory receptor family 4 subfamily F member 29),0.6,inactive
OR4F29 (olfactory receptor family 4 subfamily F member 29),-0.15,inactive
OR4F29 (olfactory receptor family 4 subfamily F member 29),1.56,inactive
ACTL6B (actin like 6B),-0.67,inactive
ACTL6B (actin like 6B),0.33,inactive
ACTL6B (actin like 6B),-0.18,inactive
ACTL6B (actin like 6B),-0.45,inactive
FOXL2 (forkhead box L2),-0.44,inactive
FOXL2 (forkhead box L2),0.51,inactive
FOXL2 (forkhead box L2),-0.36,inactive
FOXL2 (forkhead box L2),0.62,inactive
MAGEC3 (MAGE family member C3),-0.1,inactive
MAGEC3 (MAGE family member C3),-0.63,inactive
MAGEC3 (MAGE family member C3),-0.24,inactive
MAGEC3 (MAGE family member C3),0.76,inactive
ZNF354C (zinc finger protein 354C),-0.2,inactive
ZNF354C (zinc finger protein 354C),0.29,inactive
ZNF354C (zinc finger protein 354C),5.19,active
ZNF354C (zinc finger protein 354C),0.18,inactive
ADAM12 (ADAM metallopeptidase domain 12),-0.91,inactive
ADAM12 (ADAM metallopeptidase domain 12),-0.69,inactive
ADAM12 (ADAM metallopeptidase domain 12),-0.84,inactive
ADAM12 (ADAM metallopeptidase domain 12),-0.42,inactive
NKTR (natural killer cell triggering receptor),-1.32,inactive
NKTR (natural killer cell triggering receptor),4.93,active
NKTR (natural killer cell triggering receptor),0.3,inactive
NKTR (natural killer cell triggering receptor),0.05,inactive
MFSD1 (major facilitator superfamily domain containing 1),1.91,inactive
MFSD1 (major facilitator superfamily domain containing 1),-0.26,inactive
MFSD1 (major facilitator superfamily domain containing 1),-0.37,inactive
MFSD1 (major facilitator superfamily domain containing 1),1.4,inactive
RPS3 (ribosomal protein S3),1.81,inactive
RPS3 (ribosomal protein S3),0.86,inactive
RPS3 (ribosomal protein S3),0.84,inactive
RPS3 (ribosomal protein S3),3.6,active
DNAJA3 (DnaJ heat shock protein family (Hsp40) member A3),-0.61,inactive
DNAJA3 (DnaJ heat shock protein family (Hsp40) member A3),0.39,inactive
DNAJA3 (DnaJ heat shock protein family (Hsp40) member A3),0.29,inactive
DNAJA3 (DnaJ heat shock protein family (Hsp40) member A3),-0.27,inactive
"NUBP1 (NUBP iron-sulfur cluster assembly factor 1, cytosolic)",0.8,inactive
"NUBP1 (NUBP iron-sulfur cluster assembly factor 1, cytosolic)",0.46,inactive
"NUBP1 (NUBP iron-sulfur cluster assembly factor 1, cytosolic)",2.22,inactive
"NUBP1 (NUBP iron-sulfur cluster assembly factor 1, cytosolic)",1.71,inactive
MX2 (MX dynamin like GTPase 2),-0.07,inactive
MX2 (MX dynamin like GTPase 2),-1.03,inactive
MX2 (MX dynamin like GTPase 2),-0.67,inactive
MX2 (MX dynamin like GTPase 2),-0.52,inactive
NTF4 (neurotrophin 4),3.55,active
NTF4 (neurotrophin 4),1.09,inactive
NTF4 (neurotrophin 4),3.42,active
NTF4 (neurotrophin 4),4.43,active
SLC22A17,-0.94,inactive
SLC22A17,-0.56,inactive
SLC22A17,-0.72,inactive
SLC22A17,-0.91,inactive
PODNL1 (podocan like 1),-1,inactive
PODNL1 (podocan like 1),0.69,inactive
PODNL1 (podocan like 1),0.93,inactive
PODNL1 (podocan like 1),0.76,inactive
HIGD1B (HIG1 hypoxia inducible domain family member 1B),-0.71,inactive
HIGD1B (HIG1 hypoxia inducible domain family member 1B),-0.63,inactive
HIGD1B (HIG1 hypoxia inducible domain family member 1B),-0.77,inactive
HIGD1B (HIG1 hypoxia inducible domain family member 1B),-0.36,inactive
SLC5A1,0.6,inactive
SLC5A1,-0.55,inactive
SLC5A1,0.21,inactive
SLC5A1,-0.24,inactive
PODN (podocan),0.33,inactive
PODN (podocan),0.9,inactive
PODN (podocan),0.24,inactive
PODN (podocan),-0.02,inactive
MYH2 (myosin heavy chain 2),-0.7,inactive
MYH2 (myosin heavy chain 2),-0.35,inactive
MYH2 (myosin heavy chain 2),-0.65,inactive
MYH2 (myosin heavy chain 2),-0.25,inactive
"NRDE2 (NRDE-2, necessary for RNA interference, domain containing)",-0.14,inactive
"NRDE2 (NRDE-2, necessary for RNA interference, domain containing)",1.95,inactive
"NRDE2 (NRDE-2, necessary for RNA interference, domain containing)",-0.53,inactive
"NRDE2 (NRDE-2, necessary for RNA interference, domain containing)",-0.97,inactive
SPRR1B (small proline rich protein 1B),-2.05,active
SPRR1B (small proline rich protein 1B),-1.98,active
SPRR1B (small proline rich protein 1B),-2.07,active
SPRR1B (small proline rich protein 1B),-1.83,active
EIF1AY (eukaryotic translation initiation factor 1A Y-linked),2.03,inactive
EIF1AY (eukaryotic translation initiation factor 1A Y-linked),-2.53,active
EIF1AY (eukaryotic translation initiation factor 1A Y-linked),1.24,inactive
EIF1AY (eukaryotic translation initiation factor 1A Y-linked),-0.41,inactive
EBF2 (EBF transcription factor 2),1.05,inactive
EBF2 (EBF transcription factor 2),1.61,inactive
EBF2 (EBF transcription factor 2),1.38,inactive
EBF2 (EBF transcription factor 2),1.93,inactive
SLC16A2,-1.11,inactive
SLC16A2,-0.17,inactive
SLC16A2,-0.63,inactive
SLC16A2,-0.47,inactive
RBPJ,-1.11,inactive
RBPJ,-1.12,inactive
RBPJ,-1.6,active
RBPJ,-0.91,inactive
SLC44A2,1.67,inactive
SLC44A2,4.9,active
SLC44A2,1.43,inactive
SLC44A2,2.42,inactive
"ZFPM1 (zinc finger protein, FOG family member 1)",-1.07,inactive
"ZFPM1 (zinc finger protein, FOG family member 1)",-0.5,inactive
"ZFPM1 (zinc finger protein, FOG family member 1)",-0.88,inactive
"ZFPM1 (zinc finger protein, FOG family member 1)",-0.39,inactive
APBB2 (amyloid beta precursor protein binding family B member 2),-0.81,inactive
APBB2 (amyloid beta precursor protein binding family B member 2),-0.53,inactive
APBB2 (amyloid beta precursor protein binding family B member 2),1.09,inactive
APBB2 (amyloid beta precursor protein binding family B member 2),-0.11,inactive

18 of these entries, set out differently.
Target gene | TNF reporter robust z-score | outcome
ZNF354C (zinc finger protein 354C) | 0.18 | inactive
ADAM12 (ADAM metallopeptidase domain 12) | -0.91 | inactive
ADAM12 (ADAM metallopeptidase domain 12) | -0.69 | inactive
ADAM12 (ADAM metallopeptidase domain 12) | -0.84 | inactive
ADAM12 (ADAM metallopeptidase domain 12) | -0.42 | inactive
NKTR (natural killer cell triggering receptor) | -1.32 | inactive
NKTR (natural killer cell triggering receptor) | 4.93 | active
NKTR (natural killer cell triggering receptor) | 0.3 | inactive
NKTR (natural killer cell triggering receptor) | 0.05 | inactive
MFSD1 (major facilitator superfamily domain containing 1) | 1.91 | inactive
MFSD1 (major facilitator superfamily domain containing 1) | -0.26 | inactive
MFSD1 (major facilitator superfamily domain containing 1) | -0.37 | inactive
MFSD1 (major facilitator superfamily domain containing 1) | 1.4 | inactive
RPS3 (ribosomal protein S3) | 1.81 | inactive
RPS3 (ribosomal protein S3) | 0.86 | inactive
RPS3 (ribosomal protein S3) | 0.84 | inactive
RPS3 (ribosomal protein S3) | 3.6 | active
DNAJA3 (DnaJ heat shock protein family (Hsp40) member A3) | -0.61 | inactive
